Test results from patent US5821222A (Bayer Aktiengesellschaft, priority 1992, dated 1998).

Experiment: general procedure: solution-phase peptide synthesis; BOP-Cl / N,N-diisopropylethylamine; DCC/pentafluorophenol for active ester

Row | Substance | step yield (late stage modification step) | further results
1 | Cyclo(N-methyl-L-isoleucyl-D-lactyl-N-methyl-L-isoleucyl-D-lactyl-N-methyl-L-isoleucyl-D-lactyl-) |  | cyclisation yield (cyclisation step): 36.8% of theory; final purity (method not given) (cyclisation step): purity 84%
2 | N-Benzyloxycarbonyl-N-methyl-L-isoleucyl-D-lactyl-N-methyl-L-isoleucyl-D-lactyl-N-methyl-L-isoleucyl-D-lactic acid | 82.9% of theory | 
3 | N-Methyl-L-isoleucyl-D-lactyl-N-methyl-L-isoleucyl-D-lactyl-N-methyl-L-isoleucyl-D-lactic acid | 100% of theory | 
4 | Pentafluorophenyl N-benzyloxycarbonyl-N-methyl-L-isoleucyl-D-lactyl-N-methyl-L-isoleucyl-D-lactyl-N-methyl-L-isoleucyl-D-lactate | 54% of theory | 
5 | tert-Butyl N-benzyl-N-methyl-L-leucyl-D-lactyl-N-methyl-L-leucyl-D-lactate |  | step yield (coupling step): 96.0% of theory
6 | tert-Butyl N-benzyloxycarbonyl-N-methyl-L-isoleucyl-D-lactyl-N-methyl-L-isoleucyl-D-lactyl-N-methyl-L-iso-leucyl-D-lactate |  | step yield (coupling step): 77.4% of theory
7 | tert-Butyl N-methyl-L-leucyl-D-lactyl-N-methyl-L-leucyl-D-lactate | 100% of theory | 
